Test results published in US20250198992A1, “IN VITRO METHODS” (HALEON CH SARL, priority 2022, published 2025).

Experiment: Non-specific adsorption of diclofenac on the OFM probes and tubing
Settings: 6 h perfusion of 1 μg mL^−1 test solution with 1% HSA; inflow vs outflow concentration
Protocol: Two test solutions of diclofenac diethyl amine salt (DDEA) and diclofenac sodium salt (DNa) were tested. […] Samples were collected in 1 h intervals. Syringes and Eppendorf® vials were used to deliver test solution to the OFM outlet sections and tubing, respectively. Samples from the syringes and from the Eppendorf® vials were taken at the start (t=0 h) and at the end (t=6 h) of the experiment to determine the concentration entering the OFM probe and tubing. Syringes, dosing needles, Eppendorf® vials, and pipette tips were coated with each test solution prior to use. For coating, the samples were filled with test solutions and maintained at room temperature for 30 min. Afterwards, the coating test solutions were discarded. Pipette tips underwent three cycles of filling and emptying of test solutions. The fourth filling of the pipette tip was used as the sample. Adsorption was assessed by comparing inflow to outflow concentrations. […] LLOQ was 10 ng mL^-1.

In the case of `O=C(O)Cc1ccccc1Nc1c(Cl)cccc1Cl` [DDEA, diclofenac diethylammonium], the “adsorption to the OFM probes” value is reported as “absence of adsorption” and the “adsorption to the OFM tubing material” value is reported as “absence of adsorption”.
